# Experimental data published in PubChem BioAssay AID1347423 (Functional Genomics Laboratory (NCATS/FGL), 2020).
# In all, about 52,000 sequences went through this assay and about 210 (0.4%) were called active.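 Rule for the calls: active = gene whose silencing raises cell survival under the drug, median off-target-corrected z-score across its silencing RNAs 2 or more; inactive = the rest.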 This is one part of the list.
# Assay: Resistance to Poly (ADP-Ribose) Polymerase inhibitor: Gene Identification via Genome-wide siRNA Screen
# Conditions: mouse BRCA2 R2336H ES cells, olaparib, CellTiter-Glo viability; hits give high values
# How it was run: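 Genome-wide siRNA screen (3 siRNAs/gene, 20 nM) in mouse ES cells carrying hypomorphic BRCA2 R2336H; olaparib 500 nM added 48 h post-transfection, CellTiter-Glo viability 72 h later. Normalized to plate-median negative control; MAD z-scores, gene median, seed-adjusted.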
row,Sequence,z-score
1,GCCUUCGAGCUACGAUUAATT against Slc27a5,inactive: -1.45
2,GGAUAAUUUAAACAUGGGATT against 6030411F23Rik,inactive: -0.0054
3,AUACUGGCUACAGUUUUUGTT against Olfr834,inactive: -0.593
4,CCUGAGCCUGGUCUUAUGUTT against Olfr1423,inactive: -2.16
5,GAUCGAAGCCUAAGACCGCTT against 1700006H02Rik,inactive: 0.661
6,GGCAUUCAUGGAGACUGUGTT against Zfpl1,inactive: -1.52
7,CCCACAUUAAAUGAAUAGGTT against Traf4,inactive: 0.126
8,GGCUCAGAUUGAUAGGAUATT against Gmfg,inactive: 0.877
9,CGGUAUCUACAUCAUAAACTT against Lamr1,inactive: -0.497
10,GCAGGUUAAGUAGCUGACATT against Dnclic2,inactive: -1.28
11,GCAGAAGUACGAAGGAGAATT against Abcd3,inactive: -0.14
12,GGAGAUAAAUCCUUUGCAUTT against Zfp119,inactive: 0.191
13,GGUGAAGUGUGUCAGUCUGTT against Orc6l,inactive: -1.23
14,GGCUCAAGAAGAAGAAUGCTT against P2ry1,inactive: -2.15
15,GGCAGUAACUCAUGUGCCUTT against Gtlf3b,inactive: -0.173
16,GGCAUUUUUCAUCGAGUCGTT against Pfkfb3,inactive: -0.2
17,GCUGGCUAGUUUGGGCAUATT against 0610009M14Rik,inactive: -0.192
18,GCUCGCACAUUUGACUUGGTT against 4833422F06Rik,inactive: 1.41
19,GGAUCGUGUGGAACACCUCTT against BC060632,inactive: -0.043
20,GCAUUAUCAACCGGAUUGATT against Rgs19ip3,inactive: -0.325
21,GGUGAUCUACUACAGGAAUTT against Fcer1a,inactive: -0.822
22,GGUUUACCAGAAACACUGATT against 2310056P07Rik,inactive: 0.102
23,GGGAGAGGCAACCUGUAUCTT against Chchd1,inactive: 0.115

row,Sequence,z-score
1,CCCUAGUCUCUCUUCAAUCTT against Prss2,inactive: -0.775
2,GGAUGAGGAGGAAAAGCUGTT against Nol1,inactive: -0.634
3,GGUCAAUACCAUGUGUAUUTT against Rev1l,inactive: -0.568
4,GGCAUGGAUCCUGAAAAACTT against 4932416N17Rik,inactive: -0.877
5,GGUGCAUCACCAGAACUCGTT against Ch25h,inactive: 0.885
6,CCAAAACGUGCAACACAAUTT against Cops6,inactive: -2.34
7,GGCUGCUCAUACGAUUAAUTT against Nek11,inactive: 1.58
8,GGAUGGAAUCAUUUGUAGCTT against Apba3,inactive: -0.878
9,GGAUCUUAGAGAUGAUUACTT against Tmem20,inactive: 0.467
10,GGCAUUCCUCGGAAGUCAATT against Smad7,inactive: 2.41
11,GGAUAUGUGUUCAUCCUGUTT against 4930442L21Rik,inactive: 0.741
12,UGGAAUAAUUACCCAUGCUTT against LOC544988,inactive: 0.0658
13,CCUGAUACCACGACAAGAATT against Daf2,inactive: 0.0625
14,GCAAAGAAGUUGGGAUAUCTT against Rad51c,inactive: -3
15,GGAGCAGAGGCUACAAAGATT against Prc1,inactive: -3.16
16,GGAGUGAUCAUCUAUAAUUTT against Rnf133,inactive: 0.704
17,GGUCGAGAGAAACGGAACUTT against Lrrc3,inactive: 1.43
18,CCAUACGAACAGACAUUUUTT against Tcn2,inactive: -1.4
19,GGGUCCAUGACAAUUCACATT against Rhbg,inactive: -1.01
20,GGACAAUGUAUGGAUCCCATT against Pilra,inactive: -0.733
21,GGCAAUUAUUCGUGUCUUATT against 4930449I24Rik,inactive: -0.508
22,GCUGGUUUACCAAAACAUATT against Gna14,inactive: 1.02
23,GCACUUCCCUCCCUAUGCATT against 0610037P05Rik,inactive: -1.25

# Some of the entries so far, tab-delimited.
row	Sequence	z-score
9	GGAUCUUAGAGAUGAUUACTT against Tmem20	inactive: 0.467
16	GGAGUGAUCAUCUAUAAUUTT against Rnf133	inactive: 0.704
19	GGGUCCAUGACAAUUCACATT against Rhbg	inactive: -1.01

# Continuation.

row,Sequence,z-score
1,GCAUUAUGGGCUUUUAUGATT against Dnaja1,inactive: 0.638
2,GCAACACACCAUAUCAGGATT against Tas2r135,inactive: -0.137
3,GGAUGCAUUUCUGAGCCACTT against Tacc2,inactive: -1.28
4,GUCAUCGCUCCCAAGAAGGTT against D8Ertd738e,inactive: 0.0227
5,GGGCACAAGGUCAUAACUGTT against Piga,inactive: -0.841
6,GGUGUAGAAUAGGACAAAUTT against Ntsr2,inactive: -0.114
7,GGCAACAUUGAUCAAGUGGTT against Sitpec,inactive: -0.797
8,GCUUACAAGGCAUGUAUGATT against E430018M08Rik,inactive: 0.2
9,GGAAUCAGUGACCUUUUUCTT against Arf2,inactive: -2.16
10,GGCUCUGGAUAAUUACUAUTT against Eif1a,inactive: -0.369
11,GGAGACAACAGAUUUCCUGTT against Bcl2l12,inactive: 1.03
12,GGUUUACCUCUAUGCUAUGTT against Upk3a,inactive: 2.04
13,GGGCCACCCAAAACAUCUUTT against V1rc27,inactive: 0.67
14,CGAACAUUUCAUCUGAUGATT against Ntrk2,inactive: 0.337
15,CCCAAUUUGAUUAUAGGUUTT against Olfr1243,inactive: 0.1
16,GCCCUUGAUUGACAAGGAATT against Mrps7,inactive: 1.33
17,GGUUUGGCAAAGAAACACATT against Itpa,inactive: -1.77
18,UCGUGUGCCUGAUGAUCACTT against Abcc5,inactive: 0.94
19,GAGAGAUUGAGCUUGAAAGTT against Fxc1,inactive: 0.941
20,GGACAUUGAACAACACUAUTT against Krt1-9,inactive: -0.0349
21,GCCCACCGACUUUAUUAACTT against Tcfap2d,inactive: 1.35
